Data taken from PMC10454551.
Results are given in words; binding and its absence hold for the method and conditions named. In cells and extracts the contact can be indirect. Some results given as binding are weak or reduced against the parent protein; the word gives no strength. Sequences can lack the tags named with a protein.

T1: chicken Fos (Fos-HA, from pCAG-Fos-HA) (chicken) (UniProt P11939)
T1 sequence: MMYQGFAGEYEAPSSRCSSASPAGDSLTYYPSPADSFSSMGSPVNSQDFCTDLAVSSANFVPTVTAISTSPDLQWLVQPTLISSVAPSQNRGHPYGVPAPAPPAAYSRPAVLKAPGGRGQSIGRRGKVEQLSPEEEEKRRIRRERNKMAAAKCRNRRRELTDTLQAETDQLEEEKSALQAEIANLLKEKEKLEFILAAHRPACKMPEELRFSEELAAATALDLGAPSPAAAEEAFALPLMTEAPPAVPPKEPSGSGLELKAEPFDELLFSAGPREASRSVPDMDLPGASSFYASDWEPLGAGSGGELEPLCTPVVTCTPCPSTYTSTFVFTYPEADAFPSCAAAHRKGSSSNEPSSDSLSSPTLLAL

T2: chicken p53 (p53-Flag, from pCAG-p53-Flag) (chicken) (UniProt P10360)
T2 sequence: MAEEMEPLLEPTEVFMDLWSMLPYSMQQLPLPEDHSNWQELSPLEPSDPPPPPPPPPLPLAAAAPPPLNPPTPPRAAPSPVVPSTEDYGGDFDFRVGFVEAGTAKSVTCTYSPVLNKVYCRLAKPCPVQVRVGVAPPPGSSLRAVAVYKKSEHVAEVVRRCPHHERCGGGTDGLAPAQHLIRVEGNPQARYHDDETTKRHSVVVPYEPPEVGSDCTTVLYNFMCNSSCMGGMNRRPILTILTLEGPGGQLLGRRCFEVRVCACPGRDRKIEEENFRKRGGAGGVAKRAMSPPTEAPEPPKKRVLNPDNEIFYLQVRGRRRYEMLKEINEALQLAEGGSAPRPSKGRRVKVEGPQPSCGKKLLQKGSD


Legend:
[1] = target: T1, chicken Fos (Fos-HA, from pCAG-Fos-HA) (chicken); assay: co-IP; LMH cells co-transfected with pCAG-Fos-HA and pCAGGS-p53-Flag; lysates with Protein A/G magnetic beads and anti-HA, anti-Flag or control IgG, 2 h at 4 °C; four washes with PBST; Western blot with HA or Flag antibody
[2] = target: T2, chicken p53 (p53-Flag, from pCAG-p53-Flag) (chicken); assay: as above

| binding [1] | binding [2] | Binder |
| --- | --- | --- |
| binds |  | chicken p53 (p53-Flag, from pCAG-p53-Flag) (protein, UniProt P10360 1-367) MAEEMEPLLEPTEVFMDLWSMLPYSMQQLPLPEDHSNWQELSPLEPSDPPPPPPPPPLPLAAAAPPPLNPPTPPRAAPSPVVPSTEDYGGDFDFRVGFVEAGTAKSVTCTYSPVLNKVYCRLAKPCPVQVRVGVAPPPGSSLRAVAVYKKSEHVAEVVRRCPHHERCGGGTDGLAPAQHLIRVEGNPQARYHDDETTKRHSVVVPYEPPEVGSDCTTVLYNFMCNSSCMGGMNRRPILTILTLEGPGGQLLGRRCFEVRVCACPGRDRKIEEENFRKRGGAGGVAKRAMSPPTEAPEPPKKRVLNPDNEIFYLQVRGRRRYEMLKEINEALQLAEGGSAPRPSKGRRVKVEGPQPSCGKKLLQKGSD |
|  | binds | chicken Fos (Fos-HA, from pCAG-Fos-HA) (protein, UniProt P11939 1-367) MMYQGFAGEYEAPSSRCSSASPAGDSLTYYPSPADSFSSMGSPVNSQDFCTDLAVSSANFVPTVTAISTSPDLQWLVQPTLISSVAPSQNRGHPYGVPAPAPPAAYSRPAVLKAPGGRGQSIGRRGKVEQLSPEEEEKRRIRRERNKMAAAKCRNRRRELTDTLQAETDQLEEEKSALQAEIANLLKEKEKLEFILAAHRPACKMPEELRFSEELAAATALDLGAPSPAAAEEAFALPLMTEAPPAVPPKEPSGSGLELKAEPFDELLFSAGPREASRSVPDMDLPGASSFYASDWEPLGAGSGGELEPLCTPVVTCTPCPSTYTSTFVFTYPEADAFPSCAAAHRKGSSSNEPSSDSLSSPTLLAL |
